The MIC is the lowest concentration that inhibits growth of the organism. A lower MIC goes with a more susceptible organism.

Results on 1 compound are retold here after ChEMBL document CHEMBL1150589, “New sesquiterpenoids from the root of Guatteria multivenia” (J Nat Prod, 2002).

In the assay the test system is Candida albicans. The assay can be described thus: Antimicrobial activity against Candida albicans. Format: functional, organism-based. In short, it runs like this: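 Antimicrobial assay run per an earlier method. Both IC50 and MIC were reported in µg/mL. Amphotericin B was the positive control for C. albicans and C. neoformans.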

Molecules are shown by their SMILES. In brackets after ≈: the same amount, converted by molar mass.

As for `C[C@@H]1[C@H](O)[C@@H](C)/C=C/C=C/C=C/C=C/C=C/C=C/C=C/[C@H](O[C@@H]2O[C@H](C)[C@@H](O)[C@H](N)[C@@H]2O)C[C@@H]2O[C@](O)(C[C@@H](O)C[C@@H](O)[C@H](O)CC[C@@H](O)C[C@@H](O)CC(=O)O[C@H]1C)C[C@H](O)[C@H]2C(=O)O` [AMPHOTERICIN B], the lowest concentration to inhibit growth (MIC) was 0.31 µg/mL (≈ 0.335 µM).
